This is an account of results in paper PMC7406630 (EJNMMI Research, 2020).

Data set [1] can be described thus: general procedure: Fmoc solid-phase peptide synthesis. The note with it: whole synthesis, analytical RP-HPLC (Phenomenex Jupiter Proteo 90 Å C12).
A short description of a further data set: peptide made by a vendor. The note with it: whole synthesis, analytical RP-HPLC (Phenomenex Jupiter Proteo 90 Å C12).

As to “DOTA-D-Phe-c[Cys-1-NaI-D-Trp-Lys-Thr-Cys]Thr(ol)”, in data set [1], the “final HPLC purity” value stood at 96%.

Turning to “DOTA-D-Phe-c[Cys-Tyr-D-Trp-Lys-Thr-Cys]Thr”, in data set [1], the “final HPLC purity” value is listed as 100%.

With “DOTA-(4-amino)-D-Phe-c[Cys-Tyr-D-Trp-Lys-Val-Cys]-Thr-NH2”, the “final HPLC purity” value in “peptide made by a vendor” is recorded as 98%.

Consider “DOTA-(4-amino-3-iodo)-D-Phe-c[Cys-(3-iodo)-Tyr-D-Trp-Lys-Val-Cys]-Thr-NH2”, for which, in “peptide made by a vendor”, the “final HPLC purity” value is 100%.
